# Test results as given in PubChem BioAssay AID1347076 (National Center for Advancing Translational Sciences (NCATS), 2019).
# Among all 400,000 compounds or so, about 13,000 (3.2%) were called active. The inconclusive results got no clear call from the source; some entries with a clear call stand among them for comparison. The call rests on the fitted dose curve; in most records, active means well fitted cell-killing curve with a large enough effect; inconclusive means small, poorly fitted or top-dose-only effect, or effect the other way; inactive means flat fitted curve, though single readings scatter. Potencies beside an inconclusive call are fits to weak or partial responses and may not hold up.
# Test: qHTS assay for MDR1-selective chemotherapeutics: Primary screen using the drug-selected MDR subline cells KB-V1; further: nearly all actives have a fitted effect of over 60% in size
# Conditions: KB-V1 MDR cells viability, CellTiter-Glo, 72 h; activity change, negative = cytotoxicity: at 46.1 µM (top of the series)
# Method in brief: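 Drug-selected KB-V1 cells, grown in DMEM lacking phenol red with 10% FBS, receive compound titrations; after three days at 37 degrees C, surviving cell ATP is quantified by CellTiter-Glo luminescence and responses normalized and curve-fitted.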
# On the % scale 0 is the no-effect control and ±100 the full control effect; potency means the concentration at half of the fitted maximal effect.
Compound,Potency,"activity change, negative = cytotoxicity"
Cc1ccc(C(=O)N2CCC(Cc3ccccc3)CC2)cc1[N+](=O)[O-],"inconclusive: 18.4 µM [cytotoxic, single point]",
N#C/C(=N\Nc1ccc(Cl)cc1)C(=O)c1ccccc1,inactive,
Cc1ccc(C)c(S(=O)(=O)N2CCN(C(=O)c3sccc3C)CC2)c1,active: 9.2 µM,
CCc1cc2cc(C(=O)N3CCN(Cc4ccccc4)CC3)sc2s1,active: 14.6 µM,
Cc1ccc(C(=O)Nc2ccccc2N2CCCCC2)cc1,"inconclusive: 25.9 µM [cytotoxic, single point]",
CCOc1cccc(CC(=O)NCc2ccc3c(c2)CCN3C(=O)c2cccc(C)c2)c1OCC,"inconclusive: 4.11 µM [cytotoxic, full curve]",
N#CC1(Nc2ccc(C(=O)O)cc2)CCCC1,inactive,
Cc1ccccc1SCC(=O)OCC(=O)NCCNC(=O)COC(=O)CSc1ccccc1C,inactive,
CCN1C(=O)c2ccccc2Sc2ccc(NC(=O)Cc3ccc(OC)c(OC)c3)cc21,"inconclusive: 13 µM [cytotoxic, partial curve]",
CC(Nc1ncnc2nc[nH]c12)c1ccccc1 (centres undefined),"inconclusive: 3.66 µM [cytotoxic, partial curve, poor fit]",
Cc1cc(OCC(=O)NCCCN2CCOCC2)cc(C)c1Cl,"inconclusive: 10.3 µM [cytotoxic, partial curve]",
O=C(NCc1ccccc1Cl)C(=O)NCC(c1ccc2c(c1)OCO2)N1CCOCC1 (centres undefined),inactive,
O=C(O)c1cc(S(=O)(=O)N2CCCCC2)ccc1N1CCOCC1,inactive,
Cc1cc(C)n(-c2nnc(C)n2/N=C/c2ccccc2OCc2ccccc2Cl)n1,"inconclusive: 18.4 µM [cytotoxic, single point]",
Cc1cc(C)c2c(CC(=O)NCc3ccco3)coc2c1,active: 14.6 µM,
COCOc1ccc(/C=C/C(=O)c2c(OCOC)cc(OCOC)c(CC=C(C)C)c2O)cc1OCOC,"inconclusive: 2.06 µM [cytotoxic, full curve]",
COc1cc2c(cc1OC)-c1cc(N3CCc4ccccc43)nc(=O)n1CC2,inactive,
Cc1cc(C(=O)NNC(=S)Nc2ccccc2)nn1C,inactive,
COc1ccccc1-c1cc(NC(C)=O)c2ncc(-c3ccc(F)cc3)n2c1,"inconclusive: 23.1 µM [cytotoxic, single point]",
CCC(CC)C(=O)N1CCc2cc(OC)c(OC)cc2C1COc1ccc2c(C)cc(=O)oc2c1 (centres undefined),"inconclusive: 0.184 µM [cytotoxic, full curve, poor fit]",
CCCCC(=Nc1ccccc1OC)C1=C(O)CC(c2ccccc2)CC1=O (centres undefined),inactive,
Cc1nn(-c2ccccc2)c2nc(-c3ccco3)cc(C(=O)O)c12,inactive,
Cc1ccc(N(CC(=O)NC2CCCC2)C(=O)c2ccc(C)s2)cc1,"inconclusive: 8.2 µM [cytotoxic, partial curve]",

Compound,Potency,"activity change, negative = cytotoxicity"
COc1ccccc1-c1cnc(C(O)c2ccc(C(C)(C)C)cc2)[nH]1 (centres undefined),active: 20.6 µM,
CC(C)(C)OC[C@H](NC(=O)c1[nH]cnc1C(=O)Nc1ccccc1F)C(=O)OC(C)(C)C,"inconclusive: 25.9 µM [cytotoxic, single point]",
Cc1cc2cc(CNC(=S)NC3CCCCC3)ccc2[nH]1,"inconclusive: 20.6 µM [cytotoxic, single point]",
O=C(CS(=O)(=O)c1nc(-c2ccc(Cl)cc2)cn1-c1ccccc1)Nc1cccc(Cl)c1,active: 16.4 µM,
Cc1c(Cl)cccc1N(Cc1ccc(C(=O)O)cc1)S(=O)(=O)c1ccccc1,"inconclusive: 14.6 µM [rising, single point]",
C=CCOc1ccc(/C(CC)=N/O)c(OC)c1,"inconclusive: 23.1 µM [cytotoxic, partial curve]",
COC(=O)c1ccc(Cn2c(C)c(C(=O)NCc3cccc([N+](=O)[O-])c3)sc2=O)o1,"inconclusive: 18.4 µM [cytotoxic, single point]",
O=C(Nc1ccc(S(=O)(=O)Nc2ccccn2)cc1)c1ccc(Cl)cc1Cl,inactive,
Cc1ccc(S(=O)(=O)N2C[C@H]3n4c(=O)ccc(=O)n4C[C@H](OC(=O)NCc4ccccc4F)[C@@]3(O)C2)cc1,inactive,
CC(C)Oc1cccc(C(=O)C2CCCN(Cc3ccc(Oc4ncccn4)cc3)C2)c1 (centres undefined),"inconclusive: 3.66 µM [cytotoxic, full curve]",
CC(C)CN(C(=O)COc1ccc([N+](=O)[O-])cc1)c1c(N)n(CC(C)C)c(=O)[nH]c1=O,inactive,
O=C(NCC1CCCO1)C1c2ccccc2C(=O)N1Cc1ccc2c(c1)OCO2 (centres undefined),"inconclusive: 8.2 µM [cytotoxic, partial curve]",
CN(CC(=O)Nc1cccc(F)c1)C(=O)CN1C(=O)NC2(CCCCC2)C1=O,"inconclusive: 29.1 µM [rising, single point]",
Cc1ccc2nc(NC(=O)C3CCCN(S(=O)(=O)c4cccc5nsnc45)C3)sc2c1 (centres undefined),"inconclusive: 16.4 µM [cytotoxic, single point]",
COc1ccc(C2CC(=O)c3cnc(NC(=O)c4ccco4)nc3C2)cc1 (centres undefined),"inconclusive: 29.1 µM [cytotoxic, single point]",
O=C(c1ccco1)N1CCN(C(=S)Nc2ccccc2C(F)(F)F)CC1,"inconclusive: 20.6 µM [cytotoxic, single point]",
CC(=O)c1ccc2c3c(cccc13)C(=O)N(c1c(C)nn(C)c1C)C2=O,inactive,
COc1ccc(S(=O)(=O)NC(=O)C2(C)CCN2C(=O)Cc2ccc(C(C)(C)C)cc2)cc1 (centres undefined),inactive,
CCOC(=O)c1c(NCc2ccccc2)n[nH]c1C,inactive,
Cn1c(NCCN2CCCC2)nc2cc(-c3cccc(C(F)(F)F)c3)sc2c1=O,inactive,
CC1CCN(C(=O)CSc2nc3c(cnn3-c3ccc(Cl)cc3)c(=O)[nH]2)CC1,"inconclusive: 29.1 µM [rising, single point]",
COC(=O)C1=C(C(=O)OC)[C@]2([C@@H]3C/C=C\CN[C@@H](Cc4ccccc4)C(=O)N3Cc3ccccc3)C=C[C@H]1O2,"inconclusive: 9.2 µM [cytotoxic, partial curve]",
COc1ccc(N2CCN(C(=O)C3CCN(S(=O)(=O)c4ccc5c(c4)oc(=O)n5C)CC3)CC2)cc1,inactive,

# Looked up by structure from the list above, 3 records:
Compound,Potency,"activity change, negative = cytotoxicity"
Cc1ccc2nc(NC(=O)C3CCCN(S(=O)(=O)c4cccc5nsnc45)C3)sc2c1 (centres undefined),"inconclusive: 16.4 µM [cytotoxic, single point]",
CC(=O)c1ccc2c3c(cccc13)C(=O)N(c1c(C)nn(C)c1C)C2=O,inactive,
CCOC(=O)c1c(NCc2ccccc2)n[nH]c1C,inactive,

# More structures.

Compound,Potency,"activity change, negative = cytotoxicity"
Cc1ccc(NC(=O)C2=C(c3ccccc3)S(=O)(=O)CCS2(=O)=O)cc1,"inconclusive: 20.6 µM [cytotoxic, single point]",
N#Cc1nc(NCC(F)F)nc(Nc2cc(F)cc(F)c2)n1,"inconclusive: 29.1 µM [cytotoxic, single point]",
Cc1cccc(-n2cc(-c3ccc([N+](=O)[O-])cc3)[nH]c2=S)c1,"inconclusive: 25.9 µM [rising, partial curve, poor fit]",
O=C(COC(=O)c1ccc(S(=O)(=O)Nc2ccccc2)cc1)NCC1CCCO1 (centres undefined),"inconclusive: 4.61 µM [rising, full curve, poor fit]",
CCOC(=O)COc1ccccc1/C=C\[N+](=O)[O-],active: 14.6 µM,
COc1ccc(CCNC(=O)c2cc(-c3ccccc3O)n[nH]2)cc1OC,inactive,
COc1ccc(N(CC(=O)Nc2ccccc2C(N)=O)S(=O)(=O)c2ccc(C)c([N+](=O)[O-])c2)cc1,"inconclusive: 6.51 µM [cytotoxic, partial curve]",
Cc1ccc(Cl)cc1NC(=O)Cn1nnc2sc3c(c2c1=O)CCC(C(C)(C)C)C3 (centres undefined),inactive,
COc1ccc2nc(N=Nc3ccc(O)c4ccccc34)sc2c1,"inconclusive: 1.64 µM [cytotoxic, full curve]",
Cc1cc(C)cc(OCC(=O)NN2C(=O)c3ccccc3C2=O)c1,"inconclusive: 16.4 µM [rising, partial curve, poor fit]",
Cn1c(SCC(=O)N(Cc2ccccc2)C(C)(C)C)nc2ccccc21,active: 20.6 µM,
Cc1ccc(N2CCN(/N=C/c3cccs3)CC2)cc1,"inconclusive: 18.4 µM [cytotoxic, single point]",
Cc1ccc(S(=O)(=O)Nc2ccc(C(=O)N3CCCC3)cc2)cc1,"inconclusive: 18.4 µM [cytotoxic, partial curve, poor fit]",
COCCOc1cc(NC(=O)CS(=O)CC(=O)N(C)C)c(Cl)cc1Cl (centres undefined),"inconclusive: 29.1 µM [rising, single point]",
CCn1c(=O)n(C)c2c(=O)n(C)c(=O)n(C)c21,inactive,
O=C(Cn1c(=O)cnc2ccccc21)N1CCN(S(=O)(=O)c2cccc([N+](=O)[O-])c2)CC1,inactive,
CCn1c(CNC(=O)c2cccc(C)c2)nnc1SCC(=O)Nc1cccc(OC)c1,"inconclusive: 2.59 µM [cytotoxic, partial curve, poor fit]",
O=[N+]([O-])c1cccc(-c2nc(NCc3ccccc3)c3ccccc3n2)c1,"inconclusive: 14.6 µM [cytotoxic, partial curve]",
Cc1ccc(C)c(S(=O)(=O)N2CCCOC2CNC(=O)C(=O)NCc2ccccc2)c1 (centres undefined),"inconclusive: 9.2 µM [cytotoxic, partial curve]",
CCOC(=O)/C(=C\c1ccccc1)C(=O)c1cc(C(C)=O)c(Nc2ccccc2)s1,"inconclusive: 29.1 µM [cytotoxic, single point]",
CC1=C(C(=O)Nc2ccccc2F)C(c2ccsc2)C2=C(CC(c3ccccc3)CC2=O)N1 (centres undefined),"inconclusive: 23.1 µM [cytotoxic, partial curve, poor fit]",
Oc1ccc(/C=N/Nc2cccc3cccnc23)c(O)c1,inactive,
Cc1oc2nc(SCC(=O)NCc3cccnc3)nc(N)c2c1C,,inconclusive: 11.8%
